Test results reported in PMC12325761.
No constants are given. Whether binding was seen depends on the method and setting. In cells and extracts the contact can be indirect. Some results given as binding are weak or reduced against the parent protein; the word gives no strength.

The chains behind the UniProt entries cited, without tags or fusion partners.
UniProt P46937: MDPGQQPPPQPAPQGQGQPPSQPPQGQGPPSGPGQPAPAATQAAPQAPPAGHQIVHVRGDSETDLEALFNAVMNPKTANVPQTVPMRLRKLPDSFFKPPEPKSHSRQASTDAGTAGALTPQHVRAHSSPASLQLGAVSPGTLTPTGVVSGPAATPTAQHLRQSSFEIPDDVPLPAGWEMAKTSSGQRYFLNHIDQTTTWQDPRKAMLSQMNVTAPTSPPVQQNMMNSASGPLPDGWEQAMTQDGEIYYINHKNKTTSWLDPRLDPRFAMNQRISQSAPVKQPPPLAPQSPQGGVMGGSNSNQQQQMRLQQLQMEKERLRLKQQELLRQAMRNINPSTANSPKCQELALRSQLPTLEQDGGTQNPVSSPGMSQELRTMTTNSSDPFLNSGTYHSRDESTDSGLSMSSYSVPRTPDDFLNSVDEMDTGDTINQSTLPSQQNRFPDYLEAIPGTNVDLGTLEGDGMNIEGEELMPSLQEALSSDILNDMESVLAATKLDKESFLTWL
UniProt Q13523: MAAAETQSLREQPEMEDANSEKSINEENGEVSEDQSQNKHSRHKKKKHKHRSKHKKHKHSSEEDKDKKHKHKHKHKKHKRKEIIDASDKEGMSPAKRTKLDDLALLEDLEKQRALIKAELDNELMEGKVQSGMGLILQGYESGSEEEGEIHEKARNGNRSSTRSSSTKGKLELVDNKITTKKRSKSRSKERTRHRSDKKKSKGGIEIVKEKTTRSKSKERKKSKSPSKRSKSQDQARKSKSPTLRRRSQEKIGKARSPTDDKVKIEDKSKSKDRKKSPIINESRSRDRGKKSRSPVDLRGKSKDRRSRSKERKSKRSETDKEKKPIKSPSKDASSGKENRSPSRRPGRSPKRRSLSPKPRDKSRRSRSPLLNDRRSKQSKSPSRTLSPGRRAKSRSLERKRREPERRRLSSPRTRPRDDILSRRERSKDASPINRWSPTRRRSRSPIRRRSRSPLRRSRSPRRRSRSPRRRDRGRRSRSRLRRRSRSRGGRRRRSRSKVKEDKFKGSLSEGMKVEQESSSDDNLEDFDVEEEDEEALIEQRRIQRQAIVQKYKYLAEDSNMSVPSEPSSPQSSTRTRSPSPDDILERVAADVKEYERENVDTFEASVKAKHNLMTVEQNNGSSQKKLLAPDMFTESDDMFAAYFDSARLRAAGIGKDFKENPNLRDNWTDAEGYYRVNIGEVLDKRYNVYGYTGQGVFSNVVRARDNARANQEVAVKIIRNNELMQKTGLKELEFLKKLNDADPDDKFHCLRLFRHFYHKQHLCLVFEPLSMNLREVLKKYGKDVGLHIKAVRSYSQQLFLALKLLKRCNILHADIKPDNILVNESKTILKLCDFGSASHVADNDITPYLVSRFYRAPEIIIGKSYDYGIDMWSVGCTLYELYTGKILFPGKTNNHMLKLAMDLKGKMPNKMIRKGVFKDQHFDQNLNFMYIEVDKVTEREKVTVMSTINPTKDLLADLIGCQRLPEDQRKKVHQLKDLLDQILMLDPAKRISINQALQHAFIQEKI

What was measured:
[1] = molecular target: ectopic YAP of the co-IP of Fig. 4e (UniProt P46937); assay: condition: only in cells with GNAQ R183Q, Q209P or Q209L, or GNA11 Q209L; co-IP; Fig. 4e, f upper: ectopic YAP with endogenous PRP4K in cells with GNAQ R183Q, Q209P or Q209L or GNA11 Q209L
[2] = molecular target: ectopic YAP of the co-IP of Fig. 4e (UniProt P46937); assay: co-IP; Fig. 4e, f upper: ectopic YAP with endogenous PRP4K; also with knock-down of endogenous GNAQ wt and GNA11 wt (interaction attenuated)
[3] = molecular target: PRP4K as precipitated in the co-IP of Fig. 4b (human) (UniProt Q13523); assay: co-IP; Fig. 4b: PRP4K precipitated; endogenous YAP and ectopic ORF blotted

| Substance | binding [1] | binding [2] | binding [3] |
| --- | --- | --- | --- |
| endogenous PRP4K (from UniProt Q13523 1-1007) (enzyme) | no binding | binds | – |
| endogenous YAP (from UniProt P46937 1-504) | – | – | binds |
